Assay results published in PubChem BioAssay AID192 (DTP/NCI, 2004).
The list is a part of this screen's results and no random one: it gathers tests that were run many times, whatever their T/C, doses with no T/C, and many T/C values between a quarter and a half above the control. Further doses and runs are listed elsewhere. T/C is the treated group as % of the vehicle group. Some doses have a count of surviving animals in place of a T/C: the source holds a T/C of zero for them, seemingly a mark for toxic or unscored doses. Some doses without a T/C left all or most animals alive at the check, yet need not have been tolerated: the source hardly ever lists a survival T/C far under the control, and the zero likely stands for such cases as well. Counts of survivors are from the toxicity check (mostly the fifth day) where no day follows; animals may have died later. Schedules are NCI's codes, read here as Q, the interval in days (D) or hours (H), X, the number of doses. Some structures stand for samples that the source files as different forms (salt, stereo form or complex); doses refer to the form tested. Some doses were run more than once; their values stand side by side, smallest first. Some schedules carry Z or #; the key to these is not given. Where survival is the endpoint, the PubChem record calls one and a half times the control and up active, and a quarter to a half above the control has no call in these data; cut-offs in other NCI protocols can differ.

Test system: BDF1 mice, B16 melanoma ip, median survival T/C
Assay: NCI In Vivo Anticancer Drug Screen. Data for tumor model B16 Melanoma (intraperitoneal) in B6D2F1 (BDF1) mice
Conditions: T/C endpoint: median survival time, higher T/C = longer survival
In short: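 The ratio T/C compares compound-treated mice with vehicle-treated controls, using survival or tumor size as the endpoint in a transplantable tumor model.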

[1] = dose: 200.0 mg/kg/injection, schedule: Q04DX003 (ip), vehicle: saline with Tween-80
[2] = dose: 400.0 mg/kg/injection, schedule: Q04DX003 (ip), vehicle: saline with Tween-80
[3] = dose: 200.0 mg/kg/injection, schedule: Q01DX009 (ip), vehicle: Klucel (hydroxypropylcellulose) (HPC)
[4] = dose: 40.0 micrograms/kg/injection, schedule: Q01DX009 (ip), vehicle: saline

O=C1NC(=O)c2cccc3cccc1c23
survivor count [1]: 6 of 6 | survivor count [2]: 6 of 6

COc1ccc(NC2=CC(C)(C(=O)O)OC2=O)cc1 (stereo not drawn)
survivor count (dose: 100.0 mg/kg/injection, schedule: Q04DX003 (ip), vehicle: saline with Tween-80): 10 of 10 | survivor count [1]: 10 of 10 | survivor count [2]: 10 of 10

c1ccc2sc(SSN3CCOCC3)nc2c1
survivor count (dose: 25.0 mg/kg/injection, schedule: Q01DX009 (ip), vehicle: Klucel (hydroxypropylcellulose) (HPC)): 10 of 10 | survivor count (dose: 50.0 mg/kg/injection, schedule: Q01DX009 (ip), vehicle: Klucel (hydroxypropylcellulose) (HPC)): 9 of 10 | survivor count (dose: 100.0 mg/kg/injection, schedule: Q01DX009 (ip), vehicle: Klucel (hydroxypropylcellulose) (HPC)): 10 of 10 | survivor count [3]: 10 of 10

O=C1C(N2CC2)=C(N2CC2)C(=O)C(N2CC2)=C1N1CC1
survivor count (dose: 20.0 micrograms/kg/injection, schedule: Q01DX009 (ip), vehicle: saline): 10 of 10 | T/C [4]: 140 % of control | survivor count [4]: 10 of 10 | survivor count (dose: 80.0 micrograms/kg/injection, schedule: Q01DX009 (ip), vehicle: saline): 10 of 10

CCCCC(=O)OC1CC2CCC1(C)C2(C)C (stereo not drawn)
survivor count [3]: 10 of 10 | survivor count (dose: 400.0 mg/kg/injection, schedule: Q01DX009 (ip), vehicle: Klucel (hydroxypropylcellulose) (HPC)): 8 of 10

CN(C)CCN(Cc1ccccc1)c1ccccc1
survivor count (dose: 100.0 mg/kg/injection, schedule: Q04DX003 (ip), vehicle: Klucel (hydroxypropylcellulose) (HPC)): 10 of 10

CO[C@H](C(=O)[C@@H](O)[C@@H](C)O)[C@@H]1Cc2cc3cc(OC4CC(OC5CC(O)C(O)C(C)O5)C(O)C(C)O4)c(C)c(O)c3c(O)c2C(=O)[C@H]1OC1CC(OC2CC(OC3CC(C)(O)C(O)C(C)O3)C(O)C(C)O2)C(O)C(C)O1 (stereo partly drawn)
survivor count (dose: 0.2 mg/kg/injection, schedule: Q01DX009 (ip), vehicle: water): 2 of 6 | survivor count (dose: 0.25 mg/kg/injection, schedule: Q01DX009 (ip), vehicle: water): 2 of 6 | survivor count (dose: 0.5 mg/kg/injection, schedule: Q01DX009 (ip), vehicle: water): 0 of 6 | survivor count (dose: 0.75 mg/kg/injection, schedule: Q01DX009 (ip), vehicle: water): 0 of 6 | survivor count (dose: 0.8 mg/kg/injection, schedule: Q01DX009 (ip), vehicle: water): 2 of 5 | survivor count (dose: 1.0 mg/kg/injection, schedule: Q01DX009 (ip), vehicle: water): 8 of 10 | survivor count (dose: 1.5 mg/kg/injection, schedule: Q01DX009 (ip), vehicle: saline): 2 of 6 | survivor count (dose: 2.0 mg/kg/injection, schedule: Q01DX009 (ip), vehicle: clinical formulation): 3 of 10 | survivor count (dose: 2.0 mg/kg/injection, schedule: Q01DX009 (ip), vehicle: saline): 7 of 10 and 9 of 10 | survivor count (dose: 2.0 mg/kg/injection, schedule: Q01DX009 (ip), vehicle: water): 1 of 10 | survivor count (dose: 3.0 mg/kg/injection, schedule: Q01DX009 (ip), vehicle: saline): 0 of 6 | survivor count (dose: 66.6 micrograms/kg/injection, schedule: Q## X015 (ip), vehicle: water): 3 of 6 | survivor count (dose: 133.3 micrograms/kg/injection, schedule: Q## X015 (ip), vehicle: water): 0 of 6 | survivor count (dose: 200.0 micrograms/kg/injection, schedule: Q## X015 (ip), vehicle: water): 0 of 6 | survivor count (dose: 250.0 micrograms/kg/injection, schedule: Q01DX009 (ip), vehicle: water): 10 of 10 | survivor count (dose: 266.7 micrograms/kg/injection, schedule: Q## X015 (ip), vehicle: water): 0 of 6 | survivor count (dose: 2000.0 micrograms/kg/injection, schedule: Q01DX009 (ip), vehicle: saline): 5 of 10
